Results taken from patent US9180163B2, “Parstatin peptides” (priority 2009, dated 2015).
Where two headings read alike, the source gives them in different places. Part of at least one peptide drawing is inferred or uncertain, most often the ends. Ends that are not written are not given here.

Assays:
[1] = test system: Erk1/2 (p42/44 MAPK) in HUVEC cells; test: Erk1/2 phosphorylation immunoblot (MAP kinase pathway); type: cell-based, human; details: 10 μM
Experimental: The MAPK (Erk1/2, p42/44) cascade mediates mitogenesis. […] HUVEC cells were cultured in 35 mm tissue culture dishes. After reaching 80% confluency, cells were growth factor-starved and subsequently stimulated for 10 min with vehicle or indicated agents. In combination experiments, cells were pretreated with parstatin or other peptides for 10 to 60 min.
Attached cells were lysed with Laenmli sample buffer, resolved in 10% SDS-PAGE, and transferred to nitrocellulose membranes. Membranes were incubated with primary antibodies against phospho p42/44 mitogen-activated protein kinases (p-Erk1/2, New England Biolabs, UK) and p42/44 Erk1/2 (t-Erk1/2, New England Biolabs, UK). Membranes were then probed with secondary antibodies horseradish peroxidase-conjugated, and proteins were visualized by chemiluminescent detection.

[2] = test system: chick chorioallontoic membrane (CAM); type: in vivo
Experimental: The in vivo chick chorioallontoic membrane (CAM) angiogenesis model was used to evaluate the effect of parstatin (1-41) in angiogenesis. On incubation day 9 of fertilized chicken eggs, an O-ring (1 cm^2) was placed on the surface of the CAM and the vehicle or the indicated substances were placed inside this restricted area. After 48 h, CAMs were fixed in saline-buffered formalin, photographed, and analyzed using the Scion Image software (Scion Image Release Beta 4.0.2 software; Scion Corporation, Frederick, Md.). Image analysis was performed on at least 18 eggs for each group. Vessel number and length were evaluated by pixel counting, and the results expressed as mean percentage of control ±SE. Statistical analyses were performed using a Student's t test.

[3] = test system: retinal neovascularization in C57BL/6 mice; type: in vivo; details: for inhibition of retinal neovascularization: P17
Description: Parstatin (1-41), hydrophobic parstatin (1-26) fragment and hydrophilic parstatin (24-41) fragment were used in an in vivo mouse model of retinal neovascularization. In particular, oxygen-induced retinopathy was used to generate retinal neovascularization as a preclinical disease model for retinopathy of prematurity and other retinal neovascular diseases such as diabetic retinopathy. In this model, exposing newborn mice to hyperoxia prompts regression or delay of retinal vascular development, followed by abnormal angiogenesis after their return to normal oxygen levels. Mainly, this model mirrors the events that occur during retinopathy of prematurity, when infants are removed from oxygen-rich incubators, a condition involving pathological neovascularization that can affect premature infants and result in permanent visual loss. In recent years, the use of this model has been extended to the general study of ischemic vasculopathies, such us diabetic retinopathy, and related antiangiogenic interventions, and it is now used extensively in both basic and applied research environments.
Pathogen-free C57BL/6 mice were treated in accordance with the Association for Research in Vision and Ophthalmology Statement for the Use of Animals in Ophthalmic and Vision Research and the guidelines of the Animal Care and Use Committee at local University Medical School. Litters of 7-day old (P7) mice were exposed to an atmosphere of 75% oxygen in an airtight incubator for 5 days (P12), after which they were returned to room air for 5 days (P17). For quantification of oxygen-induced retinal neovascularization, mice on P17 were given an intraocular injection of 1 μl of rat anti-mouse platelet endothelial cell adhesion molecule-1 (PECAM-1) antibody (Pharmingen, San Jose, Calif.) under a dissecting microscope with Harvard pump microinjection apparatus. Mice were euthanized 12 hours after injection and eyes were fixed in PBS-buffered formalin for 5 hours. […] Retinal flat mounts were prepared and assessed with fluorescence microscope using imaging software. […]

MGPRRLLLVAACFSLCGPLLSARTRARRPESKATNATLDPR (cysteines drawn unpaired) [parstatin (1-41)]
EGF- or HB-EGF-induced Erk1/2 activation ([1]; 1 h): did not have any effect | activation of Erk1/2 ([1]; pretreatment 1 h, stimulated by FBS, bFGF or VEGF): inhibited the activation | inhibition of the basal level of angiogenesis in CAMs ([2]; 10 nmoles, 48 h): significant inhibition | anti-angiogenic effect when angiogenesis stimulated by bFGF or VEGF ([2]; compared with basal angiogenesis): more pronounced | inhibition of retinal neovascularization ([3]; 3 μg intravitreal P12 and P15): 60% | retinal neovascularization, benefit over 3 μg dose ([3]; 5 μg intravitreal): did not provide additional benefit | inhibition of retinal neovascularization ([3]; 5 μg intravitreal P12 and P15, vs vehicle (PBS or DMSO)): 57%
